From PubChem BioAssay AID624297 (National Center for Advancing Translational Sciences (NCATS), 2012)
Hit rate of the full screen: of about 340,000 compounds, about 6,200 (1.8%) were called active. Inconclusive results, whose numbers are uncertain, are shown with a selection of clear calls. Calls follow the shape of the dose curve; as a rule, active = well fitted activation curve with a large enough effect; inconclusive = small, poorly fitted or top-dose-only effect; inactive = no such curve, though single readings can be large or run the other way. Where the call is inconclusive, the potency comes from a doubtful curve fit.

assay: A quantitative high throughput screen for small molecules that induce DNA re-replication in SW480 colon adenocarcinoma cells.; also: nearly all actives have a fitted effect of over 55% in size; as to re-replication activation: % of control where 0% means no effect; settings: Hoechst DNA content imaging, 48 h; re-replication activation: at 46.1 µM (top of the series)
Outline: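 Hoechst fluorescence of nuclei (405 nm excitation, 500-530 nm emission) measured by plate-scanning imager after 48 hr compound exposure at 37 C; re-replication scored as increased number of nuclei with elevated intensity.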
Potency is read from the fitted curve at half-maximal effect.

SMILES	Potency	re-replication activation
COc1ccc(N/N=C(\C=N\O)C(=O)c2ccc(OC)cc2)cc1	inconclusive: 14.6 µM [activator, partial curve, poor fit]	–
CN(C)/C(CN1CCOCC1)=C1\N=C(c2ccccc2)OC1=O	–	inactive: -7.08%
CCN(CC)c1ccc(CN2CCCCCC2)cc1	inconclusive: 8.2 µM [activator, single point]	–
C[C@H](CO)N1C[C@H](C)[C@@H](CN(C)S(=O)(=O)c2cccs2)Oc2ccc(NS(=O)(=O)c3ccccc3)cc2CC1=O	–	inactive: 0.244%
CCN(CC)c1ccc2cc(-c3nc(-c4ccc(OC)cc4)cs3)c(=O)oc2c1	active: 1.84 µM	–
CC1(C)Cc2c(sc3c2c(=O)n(-c2cccc(Cl)c2)c(=O)n3CC(N)=O)CO1	inconclusive: 14.6 µM [activator, single point]	–
CCOC(=O)c1c(C)[nH]c(C)c1C(=O)CSc1nnc(-c2ccc(OC(F)F)cc2)o1	inconclusive: 4.11 µM [activator, partial curve, poor fit]	–
CC1=C(C)CC(C(=O)NNC(=O)c2csc3c2CCC(C(C)(C)C)C3)C(C(=O)O)C1 (stereo not drawn)	active: 29.1 µM	–
CCN(CC(=O)Nc1ccccc1-c1ccccc1)Cc1nc2ccccc2c(=O)[nH]1	inconclusive: 18.4 µM [activator, single point]	–
Cc1[nH][nH]c(=O)c1N=Nc1ccc(F)cc1	–	inactive: -13.1%
Oc1ccc(/C=N/N2CCN(C3c4ccccc4-c4ccccc43)CC2)c(O)c1	inconclusive: 20.6 µM [activator, single point]	–
CCCCC(=O)NC(c1ccc(N(CC)CC)cc1)c1ccc2cccnc2c1O (stereo not drawn)	inconclusive: 4.61 µM [activator, full curve, poor fit]	–
O=c1c2ccc([N+](=O)[O-])cc2ncn1Cc1ccccc1C(F)(F)F	–	inactive: -2.07%
COc1ccccc1N1CCN(C(=O)CCCC2=NS(=O)(=O)c3ccccc3N2)CC1	–	inactive: -0.0337%
Cc1noc(C)c1C(=O)N1CCCC(C(=O)c2cccc(C(F)(F)F)c2)C1 (stereo not drawn)	active: 5.8 µM	–
COc1ccc(C=NNC(=S)NN=Cc2ccc(OC)c(OC)c2)cc1OC	inconclusive: 25.9 µM [activator, single point]	–
COc1cc(/C=C/C(=O)c2ccccc2O)cc(OC)c1OC	inconclusive: 29.1 µM [activator, single point]	–
COc1cccc(NC(=O)C(C)OC(=O)CCCNC(=O)c2ccc(Cl)cc2)c1 (stereo not drawn)	inconclusive: 29.1 µM [activator, single point]	–
O=C(Nc1ccccc1C(F)(F)F)NC1(C(=O)N2CCOCC2)CCCCC1	inconclusive: 23.1 µM [activator, single point]	–
COc1nc(-c2ccccc2)ccc1-c1noc(-c2cccnc2)n1	–	inactive: -1.72%
O=[N+]([O-])c1ccc(C=NNC(=S)NN=Cc2ccc([N+](=O)[O-])cc2)cc1	inconclusive: 0.731 µM [activator, partial curve, poor fit]	–
Cc1c(CC(=O)O)c(=O)oc2c(C)c(OCc3c(F)cccc3Cl)ccc12	inconclusive: 6.51 µM [activator, single point]	–
COc1ccccc1-n1c(SCC(=O)N(C)C)nnc1-c1ccco1	inconclusive: 3.66 µM [activator, partial curve, poor fit]	–

SMILES	Potency	re-replication activation
O=C(NCCc1ccc(F)cc1)c1ccc(S(=O)(=O)N2CCCC2)cc1	inconclusive: 4.61 µM [activator, full curve, poor fit]	–
Cc1nn(CC(=O)NCCCN2CCCCC2C)c(=O)c2cccn12 (stereo not drawn)	inconclusive: 0.326 µM [activator, partial curve, poor fit]	–
COc1ccc(C(=O)Nc2ccccc2C(=O)N/N=C/c2ccccn2)cc1OC	inconclusive: 16.4 µM [activator, partial curve, poor fit]	–
O=C1CN2Cc3c(ccc(Cl)c3Cl)N=C2N1	inconclusive: 0.501 µM [activator, partial curve, poor fit]	–
N#CC1=C(N)Oc2cc3ccccc3cc2C1c1cccs1 (stereo not drawn)	inconclusive: 31.6 µM [activator, single point]	–
c1ccc(C2CNCc3c2ccc2ccccc32)cc1 (stereo not drawn)	inconclusive: 16.4 µM [activator, single point]	–
O=C(N/N=C/c1cc(Br)ccc1O)C(c1ccncc1)N1CCOCC1 (stereo not drawn)	inconclusive: 13 µM [activator, partial curve]	–
COCCN(C(=O)CCl)C(C(=O)NC1CCCCC1)c1ccccc1C (stereo not drawn)	active: 13 µM	–
O=C(NCC(c1ccco1)N1CCc2ccccc21)c1cccc(F)c1 (stereo not drawn)	inconclusive: 0.116 µM [activator, full curve, poor fit]	–
CC(C)c1ccc(NC(=O)COC(=O)CSc2nnc(N)s2)cc1	inconclusive: 32.6 µM [activator, partial curve, poor fit]	–
CCOC(=O)C(=CNc1cccnc1Oc1ccc(C)c2c1CCC2)C(=O)OCC	inconclusive: 18.4 µM [activator, single point]	–
O=C(Nc1nc2ccccc2n1CCN1CCOCC1)c1ccc(COc2ccccc2Br)o1	inconclusive: 18.4 µM [activator, single point]	–
CC1=NN(C(N)=S)C(=O)C1N=Nc1c(Cl)cc([N+](=O)[O-])cc1Cl (stereo not drawn)	–	inactive: -3.27%
COc1cccc(C(=O)Nc2ccc(-c3nc4ccccc4o3)c(O)c2)c1	inconclusive: 29.1 µM [activator, partial curve, poor fit]	–
N#CCC(=O)N/N=C/c1cc(-c2ccccc2)n(-c2ccc(Cl)cc2)c1-c1ccccc1	inconclusive: 29.1 µM [activator, single point]	–
COc1ccc(-c2nnc(CSc3ncnc4sc5c(c34)CCC5)o2)cc1OC	inconclusive: 20.6 µM [activator, single point]	–
Fc1cccc2sc(N3CCCCC3)nc12	inconclusive: 0.0046 µM [activator, full curve, poor fit]	–
COc1ccccc1C(C[N+](=O)[O-])c1c(N)n(C)c(=O)n(C)c1=O (stereo not drawn)	inconclusive: 11.6 µM [activator, single point]	–
COc1ccc2c(c1)nc(SCC(=O)c1ccc(Br)s1)n2C	inconclusive: 20.6 µM [activator, single point]	–
Cc1ccc(CNC(=O)CN(C)S(=O)(=O)c2ccc3c(c2)n(C)c(=O)c(=O)n3C)cc1	inconclusive: 32.6 µM [activator, single point]	–
C=CCn1c(C)cc(C(=O)CSc2ccc(NC(C)=O)cc2)c1C	–	inactive: -2.41%
O=C(CCl)Nc1cc2[nH]c(=O)[nH]c2cc1Br	inconclusive: 9.2 µM [activator, partial curve]	–
Cc1ccc(S(=O)(=O)N2CCC(=O)N(C(COCc3ccc(C(F)(F)F)cc3)Cc3ccccc3)CC2)cc1 (stereo not drawn)	–	inactive: 25.2%

SMILES	Potency	re-replication activation
CCN(C(=O)COC(=O)c1ccc(O)cc1O)c1c(N)n(Cc2ccccc2)c(=O)[nH]c1=O	–	inactive: 0.0813%
CCc1ccc2nc3nc(C)cc(C)c3c(N)c2c1	active: 2.91 µM	–
CC(C)(C)CN1C(=O)C(=O)NC[C@H]1Cc1cccc2ccccc12	inconclusive: 6.51 µM [activator, single point]	–
Cc1ccc(C(=O)Nc2nc(=O)n(C)s2)cc1	–	inactive: -1.12%
CCOC(=O)C(=NC(C)(C)C)NNc1cc(Cl)ccc1Cl	–	inactive: -0.796%
COc1cccc(C2C([N+](=O)[O-])=C(N)Oc3cc(C)oc(=O)c32)c1 (stereo not drawn)	–	inactive: -2.96%
O=C(CO/N=C/c1ccc(Cl)cc1Cl)NNC(=O)c1ccc(Cl)cc1Cl	–	inactive: -16.7%
COc1ccc2oc(=O)c(-c3csc(Nc4ccc(O)cc4)n3)cc2c1	inconclusive: 32.6 µM [activator, partial curve, poor fit]	–
O=C(c1nn2c(C(F)(F)F)cc(-c3ccco3)nc2c1Br)N1CCCc2ccccc21	inconclusive: 29.1 µM [activator, single point]	–
COc1ccc(NC(=S)NC(=O)c2cncc(Br)c2)cc1	inconclusive: 2.59 µM [activator, single point]	–
Cc1nc(COc2ccccc2Cl)sc1-c1ccnc(N)n1	–	inactive: -1.74%
Cc1ccccc1S(=O)(=O)N1C[C@H]2CON(C)[C@H]2C[C@H]1c1cccc(Oc2ccccc2)c1	active: 8.2 µM	–
Brc1ccc(CNCc2cccs2)cc1	–	inactive: -2.21%
O=C(NC1CC2CCC(C1)N2Cc1ccccc1)c1cccc(F)c1 (stereo not drawn)	inconclusive: 6.51 µM [activator, single point]	–
CCOC(=O)c1ccc(NC(=S)Nc2ccc(C)cc2)cc1	–	inactive: 4.67%
COC(=O)N1[C@H](C)C=C[C@]1(Cc1ccccc1)C(=O)NCCCNc1ncc(C(F)(F)F)cc1Cl	inconclusive: 25.9 µM [activator, single point]	–
Cc1cc(C(=O)CSc2nnc(NCc3ccccc3)s2)c(C)n1C	inconclusive: 35.5 µM [activator, single point]	–
O=C(O)COCC(=O)Nc1ccc(Oc2ncnc3cc(Cl)ccc23)nc1	–	inactive: -39.5%
Cc1cccc(NC(=O)CSC(N)=O)c1C	inconclusive: 29.1 µM [activator, partial curve, poor fit]	–
C=CCC1[C@H](C)[C@H]2[C@@H]3CC[C@@H](C3)[C@H]2CN1S(=O)(=O)c1ccc(C)cc1 (stereo partly drawn)	–	inactive: 0.171%
Cn1c(N)c(C(C[N+](=O)[O-])c2ccccc2Cl)c(=O)n(C)c1=O (stereo not drawn)	inconclusive: 20.6 µM [activator, single point]	–
C[C@@H]1COC(=O)[C@H](Cc2ccc(F)cc2)CC/C=C/C[C@@H](CC(=O)N[C@@H](CO)Cc2ccccc2)C(=O)N1	inconclusive: 2.31 µM [activator, partial curve, poor fit]	–

Entries listed so far that contain a tert-butyl group (3):
SMILES	Potency	re-replication activation
CC1=C(C)CC(C(=O)NNC(=O)c2csc3c2CCC(C(C)(C)C)C3)C(C(=O)O)C1 (stereo not drawn)	active: 29.1 µM	–
CC(C)(C)CN1C(=O)C(=O)NC[C@H]1Cc1cccc2ccccc12	inconclusive: 6.51 µM [activator, single point]	–
CCOC(=O)C(=NC(C)(C)C)NNc1cc(Cl)ccc1Cl	–	inactive: -0.796%
